Measurements as given in article PMC12557383 (Journal of Medicinal Chemistry, 2025).
HELM strings list residues between dots; [ac] is acetyl, [am] amide, other brackets name non-standard units.

Test: general procedure: Fmoc solid-phase peptide synthesis; Fmoc-aminoacyl-CLEAR amide resin (0.36 mmol/g); Fmoc-Phe-Wang resin (0.30 mmol/g) for MazE_48–53; DIC/HOBT or TBTU
Conditions: whole synthesis, RP-HPLC, absorbance at 210 nm

With “PEPTIDE1{[ac].S.H.L.F.W.A.Q.F.D.E.Y.F.[am]}$$$$V2.0” the “final HPLC purity” value was “about 98%”.
